Measurements from PubChem BioAssay AID330 (DTP/NCI, 2004).
The list is a part of this screen's results and no random one: it is rich in T/C values a quarter to a half above the control, in often repeated tests (any T/C) and in doses without a T/C. Further doses and runs are listed elsewhere. T/C is the treated group as % of the vehicle group. Some doses have a count of surviving animals in place of a T/C: the source files T/C as zero there, which appears to mark a toxic dose or a test without result, not a measured value. Some survivor counts are full or nearly so, which does not show that the dose was tolerated: the source hardly ever lists a survival T/C far under the control, and the zero likely stands for such cases as well. Counts of survivors are from the toxicity check (mostly the fifth day) where no day follows; animals may have died later. Schedule codes are those of the source, taken here to give the interval after Q, in days (D) or hours (H), and the number of doses after X. Some doses were run more than once; the values are given in rising order. Some schedule codes hold Z or #, which are not explained here. Where survival is the endpoint, the PubChem record calls one and a half times the control and up active, and a quarter to a half above the control has no call in these data; cut-offs in other NCI protocols can differ. Counts like (3×) give the number of equal values in this list. Some T/C values are followed by the survivors on the day toxicity was checked, most often the fifth; where none is given, no animal had died by that day.

System: P388 leukemia ip, CD2F1 mice, survival T/C
Assay: NCI In Vivo Anticancer Drug Screen. Data for tumor model P388 Leukemia (intraperitoneal) in CD2F1 (CDF1) mice
Conditions: T/C endpoint: median survival time, higher T/C = longer survival
[1] = dose: 256.0 mg/kg/injection, schedule: Q01DX009 (ip), vehicle: saline
[2] = dose: 100.0 mg/kg/injection, schedule: Q01DX009 (ip), vehicle: saline with Tween-80
[3] = dose: 200.0 mg/kg/injection, schedule: Q01DX009 (ip), vehicle: saline with Tween-80
[4] = dose: 400.0 mg/kg/injection, schedule: Q01DX009 (ip), vehicle: saline with Tween-80
[5] = dose: 200.0 mg/kg/injection, schedule: Q01DX005 (ip), vehicle: Klucel (hydroxypropylcellulose) (HPC)
[6] = dose: 200.0 mg/kg/injection, schedule: Q01DX005 (ip), vehicle: saline with Tween-80
[7] = dose: 100.0 mg/kg/injection, schedule: Q01DX005 (ip), vehicle: Klucel (hydroxypropylcellulose) (HPC)
[8] = dose: 25.0 mg/kg/injection, schedule: Q01DX009 (ip), vehicle: saline with Tween-80
[9] = dose: 50.0 mg/kg/injection, schedule: Q01DX009 (ip), vehicle: saline with Tween-80
[10] = dose: 12.5 mg/kg/injection, schedule: Q01DX009 (ip), vehicle: saline with Tween-80
[11] = dose: 50.0 mg/kg/injection, schedule: Q01DX005 (ip), vehicle: Klucel (hydroxypropylcellulose) (HPC)
[12] = dose: 60.0 mg/kg/injection, schedule: Q01DX005 (ip), vehicle: saline with Tween-80
[13] = dose: 120.0 mg/kg/injection, schedule: Q01DX005 (ip), vehicle: saline with Tween-80
[14] = dose: 240.0 mg/kg/injection, schedule: Q01DX005 (ip), vehicle: saline with Tween-80

## O=c1ccn(C2OC(CO)C(O)C2O)c(=O)[nH]1 (centres undefined)
dose: 64.0 mg/kg/injection, schedule: Q01DX009 (ip), vehicle: saline
  T/C: 89, 91, 98, 100 % of control
dose: 128.0 mg/kg/injection, schedule: Q01DX009 (ip), vehicle: saline
  T/C: 97, 99, 107, 109 % of control
[1]
  T/C: 89, 97, 101 % of control
  survivor count: 5 of 6
dose: 512.0 mg/kg/injection, schedule: Q01DX009 (ip), vehicle: saline
  T/C: 90 (2×), 100, 148 % of control

## CC(C)NC(=S)NCc1ccc(Cl)c(Cl)c1
dose: 200.0 mg/kg/injection, schedule: Q01DX009 (ip), vehicle: other
  survivor count: 0 of 6

## CCC1CN2CCC3(C(=O)Nc4ccccc43)C2CC1/C(=C/OC)C(=O)OC (centres undefined)
[2]
  survivor count: 2 of 6
[3]
  survivor count: 0 of 6
[4]
  survivor count: 0 of 6

## C[CH2][Ge]([Cl])([Cl])[CH2]C
[5]
  survivor count: 2 of 5

## CCNC(=O)OCc1cnc(C)c(O)c1COC(=O)NCC
[6]
  survivor count: 6 of 6

## CC(C)SC(=S)Nc1cc(Cl)c(Cl)cc1Cl
[3]
  survivor count: 1 of 6

## CS(=O)(=O)OCCBr
dose: 200.0 mg/kg/injection, schedule: Q01DX001 (ip), vehicle: saline with Tween-80
  survivor count: 3 of 6
[6]
  survivor count: 0 of 6
dose: 400.0 mg/kg/injection, schedule: Q01DX001 (ip), vehicle: saline with Tween-80
  survivor count: 0 of 6

## N=C(N)SCc1ccccc1[N+](=O)[O-]
[2]
  survivor count: 3 of 6
[3]
  survivor count: 0 of 6
[4]
  survivor count: 0 of 6

## CN(C)CCCC1(O)c2ccccc2CCc2ccccc21
dose: 200.0 mg/kg/injection, schedule: Q01DX009 (ip), vehicle: saline
  survivor count: 1 of 6

## Cc1c(O)c(=O)ccn1CCCl
dose: 400.0 mg/kg/injection, schedule: Q01DX005 (ip), vehicle: saline
  survivor count: 0 of 6

## CCCCCCCCCCCCC1C(=O)NCCNCCCNCCNC1=O
dose: 100.0 mg/kg/injection, schedule: Q01DX005 (ip), vehicle: saline
  survivor count: 6 of 6
dose: 200.0 mg/kg/injection, schedule: Q01DX005 (ip), vehicle: saline
  survivor count: 2 of 6

## Cc1cccc(NC(=O)Nc2ccccc2Cl)n1
dose: 400.0 mg/kg/injection, schedule: Q01DX009 (ip), vehicle: Klucel (hydroxypropylcellulose) (HPC)
  survivor count: 6 of 6

## C=C1C(=O)C23C(OC(=O)c4ccccc4)C1CCC2C12COC3(O)C(O)C1C(C)(C)CCC2O (centres undefined)
dose: 30.0 mg/kg/injection, schedule: Q01DX009 (ip), vehicle: saline with Tween-80
  survivor count: 1 of 6

## c1ccc2c(c1)[nH]c1c2nc2ccccn21
[7]
  survivor count: 1 of 6 and 2 of 6
[5]
  survivor count: 0 of 6, 1 of 6, 1 of 4

## CC1(c2ccc(Cl)cc2)OC(=O)C(=Cc2ccc([N+](=O)[O-])s2)C(=O)O1 (centres undefined)
[8]
  T/C: 125 % of control
[9]
  T/C: 125 and 127 % of control
[2]
  T/C: 129 % of control [5 of 6 alive]
[3]
  survivor count: 2 of 6 and 4 of 6

## O=C1C(Br)=C(Br)C(=O)C1(Br)Br
[10]
  T/C: 127 % of control
[8]
  survivor count: 3 of 6

## CCCCOc1cc(N)nc2ccccc12
dose: 100.0 mg/kg/injection, schedule: Q04DX002 (ip), vehicle: saline with Tween-80
  survivor count: 2 of 6
dose: 200.0 mg/kg/injection, schedule: Q04DX002 (ip), vehicle: saline with Tween-80
  survivor count: 0 of 6
dose: 400.0 mg/kg/injection, schedule: Q04DX002 (ip), vehicle: saline with Tween-80
  survivor count: 0 of 6

## CCOC(=O)/C(=C(/C)N=Cc1ccccc1[N+](=O)[O-])C(NN=O)c1ccccc1[N+](=O)[O-] (centres undefined)
[11]
  survivor count: 6 of 6
[5]
  survivor count: 6 of 6

## CCc1cccc2c(NCCCCNc3c4ccccc4nc4c(CC)cccc34)c3ccccc3nc12
dose: 10.0 mg/kg/injection, schedule: Q## X009 (ip), vehicle: lactic acid
  survivor count: 4 of 6
dose: 20.0 mg/kg/injection, schedule: Q## X009 (ip), vehicle: lactic acid
  survivor count: 1 of 6

## Cc1cccc(C)c1NC1=C(Cl)C(=O)c2ccccc2C1=O
[12]
  survivor count: 2 of 6
[13]
  survivor count: 0 of 6
[14]
  survivor count: 0 of 6

## COc1cc(CC2c3cc(OC)c(OC)cc3CC[N+]2(C)C)c(Oc2cc(CC3c4cc(OC)c(OC)cc4CC[N+]3(C)C)ccc2OC)cc1OC (centres undefined)
dose: 6.25 mg/kg/injection, schedule: Q04DX003 (ip), vehicle: saline with Tween-80
  survivor count: 0 of 6
dose: 6.25 mg/kg/injection, schedule: Q04DX003 (ip), vehicle: water
  survivor count: 2 of 6
dose: 12.5 mg/kg/injection, schedule: Q04DX003 (ip), vehicle: saline with Tween-80
  survivor count: 0 of 6
dose: 25.0 mg/kg/injection, schedule: Q04DX003 (ip), vehicle: saline with Tween-80
  survivor count: 0 of 6
dose: 50.0 mg/kg/injection, schedule: Q04DX003 (ip), vehicle: saline with Tween-80
  survivor count: 0 of 6
dose: 100.0 mg/kg/injection, schedule: Q04DX003 (ip), vehicle: saline with Tween-80
  survivor count: 0 of 6
dose: 200.0 mg/kg/injection, schedule: Q04DX003 (ip), vehicle: saline with Tween-80
  survivor count: 0 of 6
dose: 400.0 mg/kg/injection, schedule: Q04DX003 (ip), vehicle: saline with Tween-80
  survivor count: 0 of 6

## C/C(=C\C1C/C(=C/CCc2ccoc2)C(=O)O1)CCCc1ccoc1 (centres undefined)
dose: 12.5 mg/kg/injection, schedule: Q01DX009 (ip), vehicle: saline + alcohol
  survivor count: 6 of 6

## CC(=O)OC1CN(C)CC=C1c1ccccc1 (centres undefined)
[13]
  survivor count: 0 of 6
[14]
  survivor count: 0 of 6

## NNP(=S)(NN)Oc1ccccc1
[11]
  survivor count: 0 of 5
[7]
  survivor count: 0 of 5
[5]
  survivor count: 0 of 5

## C=CC12COC(=O)CC1CCC(=O)C2 (centres undefined)
dose: 400.0 mg/kg/injection, schedule: Q04DX003 (ip), vehicle: Klucel (hydroxypropylcellulose) (HPC)
  survivor count: 1 of 6

## COc1ccc(OC)c(NCCCN2C(=O)c3ccccc3C2=O)c1
[14]
  survivor count: 6 of 6

## O=C(CNC(=O)Nc1ccc(Cl)c(Cl)c1)N/N=C/c1c(O)ccc2ccccc12
dose: 30.0 mg/kg/injection, schedule: Q01DX005 (ip), vehicle: saline with Tween-80
  survivor count: 6 of 6
[12]
  survivor count: 6 of 6
[13]
  survivor count: 6 of 6

## COC(=O)CC(O)(CCCC(C)(C)O)C(=O)OC1C(OC)=CC23CCCN2CCc2cc4c(cc2C13)OCO4 (centres undefined) (tested in a mixture with another compound)
dose: 0.25 mg/kg/injection, schedule: Q01DX009 (ip), vehicle: saline with Tween-80
  T/C: 141 % of control

## C(=Nc1ccccc1)C1CCCC[N-]1.C(=Nc1ccccc1)C1CCCC[N-]1.[Cu+2].[O-][Cl+3]([O-])([O-])O (centres undefined)
dose: 37.5 mg/kg/injection, schedule: Q01DX009 (ip), vehicle: saline with Tween-80
  survivor count: 0 of 6
dose: 75.0 mg/kg/injection, schedule: Q01DX009 (ip), vehicle: saline with Tween-80
  survivor count: 4 of 6
[2]
  survivor count: 6 of 6
[3]
  survivor count: 4 of 6

## O=C(O)c1ccccc1C(=O)c1ccc(CBr)cc1
[10]
  survivor count: 5 of 6
[8]
  survivor count: 5 of 6

## C=CCSc1nc2ccc(N=Cc3ccc([N+](=O)[O-])cc3)cc2s1
dose: 50.0 mg/kg/injection, schedule: Q01DX009 (ip), vehicle: Klucel (hydroxypropylcellulose) (HPC)
  survivor count: 6 of 6
dose: 100.0 mg/kg/injection, schedule: Q01DX009 (ip), vehicle: Klucel (hydroxypropylcellulose) (HPC)
  survivor count: 4 of 6
dose: 200.0 mg/kg/injection, schedule: Q01DX009 (ip), vehicle: Klucel (hydroxypropylcellulose) (HPC)
  survivor count: 6 of 6

## CC1C(C(=O)NCC(c2ccccc2)c2ccccc2)CC2CCCCN21 (centres undefined)
[13]
  survivor count: 0 of 6
[14]
  survivor count: 0 of 6

## Oc1c(-c2ccccc2)cc(-c2ccc(Br)cc2)c(-c2ccc(Br)cc2)c1-c1ccccc1
[9]
  survivor count: 6 of 6
